Source: patent US20220071961A1, “Dosing Regimen of Bicyclic Substituted Pyrazolone Azo Derivative” (Jiangsu Hengrui Medicine CO., LTD., priority 2019, published 2022)
At least one read-out could not be matched to a standard name with certainty.

Assay: Effect of different intervals between administration and a meal on pharmacokinetic parameters (three-period crossover, single oral dose)
Assay type: in vivo, human
Conditions: single oral 7.5 mg
Procedure: Embodiment 1: Study on an effect of different intervals between the administration and a meal on pharmacokinetic parameters of a compound represented by Formula I
Diethanolamine salt tablets of the compound represented by Formula I, with specifications of 2.5 mg/table and 5 mg/tablet.
15 healthy adult male subjects were recruited for the trial. They were randomly divided into three trial groups which correspond to three dosing sequences, i.e. ABC, BCA and CAB. A cleaning period is 10 days.
Group A: every subject orally took the test products (one T1: 2.5 mg/tablet and one T2: 5 mg/tablet) once on an empty stomach with 240 mL of room temperature water on the morning of the test. […] They were not allowed to drink water within 1 h before administration and 1 h after administration, but were allowed to drink water as needed for the rest time.
Group B: every subject orally took the test products (one T1: 2.5 mg/tablet and one T2: 5 mg/tablet) once on an empty stomach with 240 mL of room temperature water on the morning of the test. They ate high-fat and high-calorie standard meals 1 h after administration, needed to stagger the timing of the breakfast and the blood sampling, and needed to finish the breakfast within 30 min. They were not allowed to drink water within 1 h before administration and 1 h after administration, but were allowed to drink water as needed for the rest time.
Group C: every subject orally took the test products (one T1: 2.5 mg/tablet and one T2: 5 mg/tablet) once on an empty stomach with 240 mL of room temperature water on the morning of the test. […]
The high-fat meal: calories: 800 to 1,000 kcal, composed of 150 kcal of protein, 250 kcal of carbohydrates and 500 to 600 kcal of fats, wherein about 50% of the calories come from the fats. […] An effect of food on the medicine was analyzed by sampling blood at fixed time points before and after administration and measuring vital signs. […]

Structure (SMILES): CC1=NN(c2ccc3c(c2)CCCC3)C(=O)/C1=N\Nc1cccc(-c2ccc(C(=O)O)o2)c1O [compound represented by Formula I]
- Vz/F Mean SD (Group A, without a breakfast after administration, N = 15): 330.5633e128.8944 L
- Vz/F Mean SD (Group B, high-fat meal 1 h after administration, N = 14): 649.3496e507.7649 L
- Vz/F Mean SD (Group C, high-fat meal 2 h after administration, N = 14): 573.9608e435.5962 L
